Data as given in PubChem BioAssay AID652243 (Drosophila RNAi Screening Center, 2013)
Screen: 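Fly regulators of androgen-dependent reporter output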 (primary screen). Cell system: Drosophila S2R+ cells. Reagents: long dsRNA against Drosophila genes. Duration: 72 h (48 h, then 24 h hormone). Challenge: synthetic androgen R1881 at 10 nM for 24 h. Measurement: 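Firefly light from an androgen-responsive reporter and Renilla control light per well, raw and unnormalised, for each of two replicates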. Scale: firefly reporter light: higher = more light from androgen-responsive reporter; Renilla control light: higher = more constitutive control signal (cell number, transfection). Active means: 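Across duplicate plates, a knock-down whose log firefly/Renilla ratio shifted a set fold down or up from the GFP/LacZ control mean was a hit; the downward cut appears as both 1.5 and 3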. Meaning of the calls: active = hit: reporter lowered or raised; inactive = no hit.
The deposit covers about 24,000 reagents; below is a random part of those with a known target gene and a result. Over the whole deposit, 246 (1%) were called active. 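Plates not normalised; calls are printed but the firefly/Renilla ratio behind them is not deposited; fold cut for lowering reported inconsistently.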 Raw values vary from plate to plate and are shown uncorrected. Reagents against one gene are numbered here. A plus sign joins genes that one reagent is predicted to hit. No sequences are given here. Not given: the amount of reagent.

For eIF3d2 (eukaryotic translation initiation factor 3 subunit d2), the values are firefly reporter light, replicate 1 = 72217; firefly reporter light, replicate 2 = 66704; Renilla control light, replicate 1 = 3.96e5; Renilla control light, replicate 2 = 5.14e5; inactive.
Silencing of CG18278 + CG30059 resulted in: firefly reporter light, replicate 1 = 1.73e5; firefly reporter light, replicate 2 = 2.20e5; Renilla control light, replicate 1 = 3.78e5; Renilla control light, replicate 2 = 4.54e5; inactive.
UQCR-C2 (Ubiquinol-cytochrome c reductase core protein 2) #1 showed firefly reporter light, replicate 1 = 1.74e5; firefly reporter light, replicate 2 = 1.16e5; Renilla control light, replicate 1 = 1.75e6; Renilla control light, replicate 2 = 1.37e6; inactive.
UQCR-C2 (Ubiquinol-cytochrome c reductase core protein 2) #2 gave firefly reporter light, replicate 1 = 4.27e5; firefly reporter light, replicate 2 = 4.94e5; Renilla control light, replicate 1 = 7.88e5; Renilla control light, replicate 2 = 1.02e6; inactive.
For shps (sheepish) the deposit lists firefly reporter light, replicate 1 = 1.25e5; firefly reporter light, replicate 2 = 1.44e5; Renilla control light, replicate 1 = 1.78e6; Renilla control light, replicate 2 = 1.93e6; inactive.
After knock-down of timeout #1 the results were firefly reporter light, replicate 1 = 1.06e5; firefly reporter light, replicate 2 = 1.56e5; Renilla control light, replicate 1 = 3.87e5; Renilla control light, replicate 2 = 3.40e5; inactive.
For timeout #2 the deposit lists firefly reporter light, replicate 1 = 1.57e5; firefly reporter light, replicate 2 = 76228; Renilla control light, replicate 1 = 1.19e6; Renilla control light, replicate 2 = 8.43e5; inactive.
After knock-down of timeout #3, the screen gave firefly reporter light, replicate 1 = 1.42e5; firefly reporter light, replicate 2 = 1.24e5; Renilla control light, replicate 1 = 2.32e6; Renilla control light, replicate 2 = 2.82e6; inactive.
timeout #4 gave firefly reporter light, replicate 1 = 83944; firefly reporter light, replicate 2 = 76289; Renilla control light, replicate 1 = 8.12e5; Renilla control light, replicate 2 = 1.42e6; inactive.
Depletion of timeout #5 gave: firefly reporter light, replicate 1 = 1.32e5; firefly reporter light, replicate 2 = 1.08e5; Renilla control light, replicate 1 = 2.08e6; Renilla control light, replicate 2 = 1.81e6; inactive.
Against timeout #6 the deposit lists firefly reporter light, replicate 1 = 7.43e5; firefly reporter light, replicate 2 = 7.77e5; Renilla control light, replicate 1 = 1.01e6; Renilla control light, replicate 2 = 6.95e5; inactive.
kl-3 (retired record) #1 scored firefly reporter light, replicate 1 = 7.08e5; firefly reporter light, replicate 2 = 6.60e5; Renilla control light, replicate 1 = 8.93e5; Renilla control light, replicate 2 = 7.92e5; inactive.
With knock-down of kl-3 (retired record) #2, the record shows firefly reporter light, replicate 1 = 2.04e5; firefly reporter light, replicate 2 = 1.72e5; Renilla control light, replicate 1 = 6.69e5; Renilla control light, replicate 2 = 5.26e5; inactive.
For kl-3 (retired record) #3, the entry reads firefly reporter light, replicate 1 = 6.42e5; firefly reporter light, replicate 2 = 6.22e5; Renilla control light, replicate 1 = 3.58e5; Renilla control light, replicate 2 = 3.33e5; inactive.
Knock-down of blo (bloated) #1 gave: firefly reporter light, replicate 1 = 8.39e5; firefly reporter light, replicate 2 = 6.95e5; Renilla control light, replicate 1 = 1.04e6; Renilla control light, replicate 2 = 1.01e6; inactive.
blo (bloated) #2 showed firefly reporter light, replicate 1 = 3.84e5; firefly reporter light, replicate 2 = 3.19e5; Renilla control light, replicate 1 = 7.46e5; Renilla control light, replicate 2 = 6.35e5; inactive.
Depletion of CG32152 gave: firefly reporter light, replicate 1 = 5.65e5; firefly reporter light, replicate 2 = 1.07e6; Renilla control light, replicate 1 = 6.38e5; Renilla control light, replicate 2 = 8.21e5; inactive.
After knock-down of Snrk (SNF related kinase) #1, the record shows firefly reporter light, replicate 1 = 1.60e6; firefly reporter light, replicate 2 = 1.70e6; Renilla control light, replicate 1 = 3.26e6; Renilla control light, replicate 2 = 2.49e6; inactive.
Silencing of Snrk (SNF related kinase) #2 gave: firefly reporter light, replicate 1 = 9.09e5; firefly reporter light, replicate 2 = 6.45e5; Renilla control light, replicate 1 = 1.46e6; Renilla control light, replicate 2 = 9.68e5; inactive.
With knock-down of Snrk (SNF related kinase) #3, the record shows inactive.
Depletion of Son (Son RNA binding protein) came out at: firefly reporter light, replicate 1 = 1.35e5; firefly reporter light, replicate 2 = 91754; Renilla control light, replicate 1 = 2.62e6; Renilla control light, replicate 2 = 1.40e6; inactive.
Against Cys (Cystatin-like) #1 the deposit lists firefly reporter light, replicate 1 = 1.77e5; firefly reporter light, replicate 2 = 2.23e5; Renilla control light, replicate 1 = 2.81e6; Renilla control light, replicate 2 = 3.08e6; inactive.
After knock-down of Cys (Cystatin-like) #2, the screen gave firefly reporter light, replicate 1 = 2.35e5; firefly reporter light, replicate 2 = 1.59e5; Renilla control light, replicate 1 = 6.23e5; Renilla control light, replicate 2 = 7.87e5; inactive.
Depletion of RanBP3 (Ran binding protein 3) #1 resulted in: firefly reporter light, replicate 1 = 6.01e5; firefly reporter light, replicate 2 = 5.78e5; Renilla control light, replicate 1 = 1.92e6; Renilla control light, replicate 2 = 2.54e6; inactive.
Silencing of RanBP3 (Ran binding protein 3) #2 gave: firefly reporter light, replicate 1 = 3.12e5; firefly reporter light, replicate 2 = 2.49e5; Renilla control light, replicate 1 = 6.79e5; Renilla control light, replicate 2 = 9.09e5; inactive.
For Atac2 (Ada2a-containing complex component 2), the values are firefly reporter light, replicate 1 = 8.06e5; firefly reporter light, replicate 2 = 9.49e5; Renilla control light, replicate 1 = 1.54e6; Renilla control light, replicate 2 = 1.38e6; inactive.
Silencing of CG6254 gave: firefly reporter light, replicate 1 = 65057; firefly reporter light, replicate 2 = 36362; Renilla control light, replicate 1 = 6.01e5; Renilla control light, replicate 2 = 3.25e5; inactive.
